# Assay results published in PubChem BioAssay AID1671190 (National Center for Advancing Translational Sciences (NCATS), 2021).
# Protein sequences, listed by entry. Tags and fused reporters are not part of them. Lines headed by an entry give the natural chain unless they say otherwise; changes in a name come on top.
# UniProt P18054: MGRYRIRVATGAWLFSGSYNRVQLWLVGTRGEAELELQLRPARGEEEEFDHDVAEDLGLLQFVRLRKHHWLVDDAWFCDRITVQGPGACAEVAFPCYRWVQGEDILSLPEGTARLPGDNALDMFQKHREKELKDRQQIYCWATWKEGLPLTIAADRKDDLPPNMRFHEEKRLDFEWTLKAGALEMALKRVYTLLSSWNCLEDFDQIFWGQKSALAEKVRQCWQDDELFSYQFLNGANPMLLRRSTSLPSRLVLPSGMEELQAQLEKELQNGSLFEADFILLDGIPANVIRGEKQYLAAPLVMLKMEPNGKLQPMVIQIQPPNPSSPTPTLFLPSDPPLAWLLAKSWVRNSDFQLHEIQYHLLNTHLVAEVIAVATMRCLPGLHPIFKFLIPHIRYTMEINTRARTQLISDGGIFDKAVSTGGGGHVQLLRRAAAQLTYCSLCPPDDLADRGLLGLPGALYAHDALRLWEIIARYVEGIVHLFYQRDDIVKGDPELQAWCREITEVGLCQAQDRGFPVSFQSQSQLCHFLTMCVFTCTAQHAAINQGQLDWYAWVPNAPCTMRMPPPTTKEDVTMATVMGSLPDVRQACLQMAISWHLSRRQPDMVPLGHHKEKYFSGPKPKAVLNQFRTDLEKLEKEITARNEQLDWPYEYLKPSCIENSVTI
# Out of some 580,000 compounds screened, about 6,100 (1.1%) were called active. Inconclusive means that the source gave no clear call. Such entries were picked first, then a sample of the others. Calls come from the whole dose curve; as a rule, active = well fitted inhibition curve with a large enough effect; inconclusive = small, poorly fitted or top-dose-only effect, or another doubt; inactive = no such curve, though single readings can be large or run the other way. A potency beside an inconclusive call is a rough fit, not a confirmed value.
# Molecular target: Polyunsaturated fatty acid lipoxygenase ALOX12 (Homo sapiens) (UniProt P18054)
# Assay: Primary qHTS assay for inhibitors of human arachidonate 12S-lipoxygenase (ALOX12): Round 2
# Details: purified 12hLO, xylenol orange hydroperoxide absorbance; activity change, negative = inhibition: at 108 µM (top of the series) unless noted
# Method in brief: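 Purified human 12hLO (150 nM final) in 25 mM Hepes, 0.01% Triton X-100, pH 7.0 was preincubated 15 min at room temperature with compound. Then 40 uM arachidonic acid was added, 30 min. Hydroperoxide was read by Fe-XO absorbance ratio 573/405 nm.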
# % is set by controls: 0 for no effect and ±100 for the full control effect; potency is the fitted concentration of half-maximal effect.
SMILES,"activity change, negative = inhibition",Potency
COc1ccc(OC)c(C(c2nnnn2C2CCCC2)N2CCc3ccccc3C2)c1 (configuration not stated),inactive: 339%,–
Cc1nc2ccc(NC(=O)Cc3cccs3)cc2s1,–,"inconclusive: 31.6 µM [inhibitor, partial curve, poor fit]"
COCc1cn(C[C@H]2C[C@@H](NS(C)(=O)=O)[C@H](O)[C@@H]2O)nn1,inactive: 4.76% [at 176 µM],–
O=c1[nH]c(NNC(=S)NC2CCCCC2)nc2c1C1(CCCC1)Cc1ccccc1-2,–,"inconclusive: 50.1 µM [inhibitor, partial curve, poor fit]"
CCCc1n[nH]c2c1/C(=N\OCC)CC(C)(C)C2,–,active: 39.8 µM
COc1cccc(CNC2CCCCCC2)c1OC,–,"inconclusive: 1.58 µM [inhibitor, full curve, poor fit]"
COC(=O)c1cc2c(c3c4cc(OC)ccc4n(S(=O)(=O)c4ccc(F)cc4)c13)C(=O)N(C)C2,–,"inconclusive: 22.4 µM [inhibitor, partial curve, poor fit]"
O=S(=O)(c1ccc2nc(SCc3ccc(Cl)cc3)[nH]c2c1)N1CCOCC1,–,"inconclusive: 15.8 µM [inhibitor, full curve]"
Cc1ccc(C(=O)OCC(=O)c2ccco2)s1,–,active: 31.6 µM
COc1cc2cc(C(=O)NC(C)c3cccc4ccccc34)c(N)nc2cc1OC (configuration not stated),–,"inconclusive: 100 µM [inhibitor, single point]"
COc1ccc(S[C@]2(C(=O)N3CCCC3)CC(=O)N(c3ccc(OC)cc3)[C@@H]2c2ccc(OC)cc2)cc1,–,"inconclusive: 44.7 µM [inhibitor, partial curve, poor fit]"
Cc1onc(-c2ccccc2)c1-c1n[nH]c(=S)n1-c1ccccc1,inactive: -28.7%,–
C[C@H](NC(=O)c1cc(-c2ccccc2)nc2ccccc12)C(=O)O,–,"inconclusive: 89.1 µM [inhibitor, single point]"
CCCS(=O)(=O)Nc1c(C(=O)O)[nH]c2ccccc12,–,"inconclusive: 28.2 µM [inhibitor, single point]"
Cc1nc2nc(NC(=O)c3ccccc3F)[nH]n2c(=O)c1Cl,–,"inconclusive: 5.62 µM [inhibitor, full curve, poor fit]"
O=C(Nc1ccc2c(c1)C(=O)N1CCC[C@H]1C(=O)N2)c1cc(-c2ccc3c(c2)CCO3)n[nH]1,–,"inconclusive: 5.62 µM [inhibitor, full curve, poor fit]"
Cc1cccc(N2CCN(C(=O)c3cccn4c(=O)c5cc(Cl)ccc5nc34)CC2C)c1 (configuration not stated),–,"inconclusive: 50.1 µM [inhibitor, partial curve, poor fit]"
CCc1ccc(C(C)NC(=S)NCc2ccc(F)cc2)cc1 (configuration not stated),–,active: 44.7 µM
CCOC(=O)C(=C1Nc2ccccc2N1)n1c(-c2ccco2)nc2ccccc21,–,"inconclusive: 20 µM [inhibitor, partial curve, poor fit]"
C[C@@H]1O[C@@H](O[C@@H]2[C@@H](O)[C@H](OCCc3ccc(O)c(O)c3)O[C@H](CO)[C@H]2OC(=O)/C=C/c2ccc(O)c(O)c2)[C@H](O)[C@H](O)[C@H]1O,inactive: -16.5%,–
CN(Cc1c(F)cccc1Cl)C(=O)c1cccc(S(=O)(=O)N2CCN(Cc3ccccc3)CC2)c1,inactive: 9.5%,–
O=C(/C=C/c1cccc(Br)c1)c1ccc2ccccc2c1,–,"inconclusive: 11.2 µM [inhibitor, full curve]"
Cc1ccc(Cn2c(SCC(=O)NCc3ccco3)nc3ccsc3c2=O)cc1,inactive: -7.51%,–

SMILES,"activity change, negative = inhibition",Potency
CN1CCc2c(sc3c2C(=O)NC(c2ccccc2)N3)C1 (configuration not stated),inactive: 73.3%,–
CCOC(=O)c1c(NC(=O)c2cc(-c3cccc(O)c3)on2)sc(C(C)=O)c1C,inactive: 7.01% [at 57.4 µM],–
O=C1c2cccnc2C(=O)N1Cc1ccccc1,–,"inconclusive: 100 µM [inhibitor, single point]"
Cc1nn2c(N3CCN(C4CCCC4)CC3)cc(C(C)(C)C)nc2c1-c1ccccc1,inactive: 12.8%,–
COc1cc(OC)c(NC(=O)C2=C(C)C(=O)OC23CCCCCC3)cc1Cl,–,"inconclusive: 112 µM [inhibitor, partial curve, poor fit]"
CC(=O)c1cccc(NC(=O)C(OC(=O)c2cccs2)c2ccccc2)c1 (configuration not stated),–,"inconclusive: 79.4 µM [inhibitor, partial curve, poor fit]"
CN(Cc1cccs1)C(=O)Cn1c(=O)c2c(ncn2C2CCCC2)n(Cc2ccccc2)c1=O,inactive: -41.5%,–
CN(Cc1cccc(Cl)c1)C(=O)C1CCN(C(=O)Nc2ccccc2)CC1,inactive: -15.4%,–
COc1ccc(C(=O)N/N=C(\C)CC(=O)Nc2ccc(N(C)C)cc2)c(OC)c1,inactive: 50.8%,–
CCNc1ncc2nc(-c3cccs3)c(=O)n(C[C@H]3CCCO3)c2n1,–,"inconclusive: 39.8 µM [inhibitor, partial curve, poor fit]"
O=C(NCc1c[nH]c2ncccc12)c1ccc2c(c1)OCO2,inactive: 15.9% [at 176 µM],–
O=C(O[C@@H]1Cc2c(O)cc(O)cc2O[C@@H]1c1cc(O)c(O)c(O)c1)c1cc(O)c(O)c(O)c1,–,"inconclusive: 2.51 µM [inhibitor, partial curve, poor fit]"
O=C(O)CSCC(=O)N[C@H]1C[C@H]2C(=O)Nc3ccc(-c4cccs4)cc3C(=O)N2C1,–,"inconclusive: 44.7 µM [inhibitor, partial curve]"
NC1=NC[C@H](Cc2ccccc2)N1CC1CCCCC1,inactive: -22.5%,–
COCCCn1c(=O)c2ccccc2n(Cc2ccccc2)c1=O,–,"inconclusive: 100 µM [inhibitor, single point]"
CCCCc1ccc(C(=O)Cn2nnc(-c3cccc(F)c3)n2)cc1,inactive: -34.4%,–
CC(C)CC(COCc1ccc(C(F)(F)F)cc1)N1CCN(C(=O)c2ccc(C(F)(F)F)cc2)CCC1=O (configuration not stated),inactive: -5.15%,–
CC(=O)Nc1ccc(N=C(C2=C(O)c3ccccc3C2=O)c2ccccc2)cc1,inactive: -8.67%,–
Cc1ccccc1N1CCN(Cc2cccc(C(=O)O)c2)CC1,inactive: -14.6%,–
CCOC(=O)C1=C(COC(=O)C(CC)Oc2ccccc2)NC(=O)NC1C (configuration not stated),–,"inconclusive: 50.1 µM [inhibitor, partial curve, poor fit]"
O=C(CSc1ncc(-c2ccc(Br)cc2)o1)N1CCCCCC1,inactive: -38%,–
CCc1noc(-c2cccn3c(CNC(=O)c4cccc(F)c4)nnc23)n1,inactive: 58.5%,–
O=C(NC1CC1)c1cc(-c2ccc(Cl)c(Cl)c2)nc2ccccc12,inactive: 1.15%,–

# Individual results from the results shown:
# `O=C(CSc1ncc(-c2ccc(Br)cc2)o1)N1CCCCCC1` – activity change, negative = inhibition: inactive: -38%
# `NC1=NC[C@H](Cc2ccccc2)N1CC1CCCCC1` – activity change, negative = inhibition: inactive: -22.5%
# `Cc1ccccc1N1CCN(Cc2cccc(C(=O)O)c2)CC1` – activity change, negative = inhibition: inactive: -14.6%
# `CC(=O)Nc1ccc(N=C(C2=C(O)c3ccccc3C2=O)c2ccccc2)cc1` – activity change, negative = inhibition: inactive: -8.67%

# (more compounds)

SMILES,"activity change, negative = inhibition",Potency
Cc1cc(N2C(=O)C(=O)/C(=C(/O)c3ccc(F)cc3)C2c2ccc(Cl)cc2)no1 (configuration not stated),–,"inconclusive: 17.8 µM [inhibitor, full curve, poor fit]"
O=C(N/N=C/C=C\c1ccccc1[N+](=O)[O-])c1ccco1,–,"inconclusive: 126 µM [inhibitor, partial curve, poor fit]"
COc1ccc(N2C(=O)C(C)(C)CS2(=O)=O)cc1S(=O)(=O)Nc1ccc(F)c(Cl)c1,inactive: 1.34%,–
O=[N+]([O-])c1ccc(CSc2nnc(-c3cnccn3)o2)cc1,inactive: -13.9%,–
COc1ccc(C2=Nc3ccccc3NC(=O)C2N(C(=O)c2cc3ccccc3[nH]2)c2ccccc2)cc1 (configuration not stated),–,"inconclusive: 31.6 µM [inhibitor, partial curve, poor fit]"
COc1ccc(CCNC(=O)CNS(=O)(=O)c2ccc(Cl)cc2)cc1,–,"inconclusive: 56.2 µM [inhibitor, partial curve, poor fit]"
O=C(NCc1ccco1)C1CC(c2ccc(C(F)(F)F)cc2)=NO1 (configuration not stated),–,"inconclusive: 44.7 µM [inhibitor, partial curve]"
CCn1nc(C(=O)Nc2ccc(OCC(=O)N(C)C)cc2)c2ccccc2c1=O,–,"inconclusive: 15.8 µM [inhibitor, partial curve, poor fit]"
Cc1ccc2c3cc(-c4ccccc4)cn3ccn12,–,active: 0.794 µM
CNc1c(NC(=O)NC(C)C)c(=O)oc2ccccc12,–,"inconclusive: 3.16 µM [inhibitor, full curve, poor fit]"
CCOC(=O)c1ccc(N2C(=O)C(O)=C(C(C)=O)C2c2ccc(O)c(OC)c2)cc1 (configuration not stated),–,"inconclusive: 44.7 µM [inhibitor, partial curve, poor fit]"
Cc1ccc(NC(=O)C2CC2c2ccccc2)c([N+](=O)[O-])c1 (configuration not stated),–,"inconclusive: 25.1 µM [inhibitor, partial curve, poor fit]"
Cc1c(NC(=O)CSc2nncc3ccccc23)c(=O)n(-c2ccccc2)n1C,–,"inconclusive: 89.1 µM [inhibitor, partial curve, poor fit]"
COc1ccc(C(C)=O)cc1CN1CCCc2ccccc21,–,"inconclusive: 4.47 µM [inhibitor, full curve, poor fit]"
Cc1ccc(NC(=O)C2=C(c3ccccc3)NC(=S)NC2c2ccc(F)cc2)cc1 (configuration not stated),–,"inconclusive: 112 µM [inhibitor, single point]"
CN1CC(=O)N(C2CCNCC2)Cc2c1ncnc2N1CCCC(O)C1 (configuration not stated),–,"inconclusive: 3.16 µM [inhibitor, full curve]"
O=C(CCl)NNc1cccc(Cl)n1,–,"inconclusive: 25.1 µM [inhibitor, partial curve]"
Cc1csc(NC(=O)NCC2CCCC(CNC(=O)Nc3nc(C)cs3)C2)n1 (configuration not stated),–,"inconclusive: 224 µM [inhibitor, partial curve, poor fit]"
CCOc1ccc(NC(=O)CN(C)C(=O)CCCn2c(=O)oc3ccccc32)cc1OCC,–,"inconclusive: 56.2 µM [inhibitor, partial curve, poor fit]"
COc1ccc(CNC2CCCCC2)cc1,–,"inconclusive: 2.82 µM [inhibitor, full curve, poor fit]"
CC(=O)S[C@@H]1CC2=CC(=O)CC[C@]2(C)[C@H]2CC[C@@]3(C)[C@@H](CC[C@@]34CCC(=O)O4)C12 (some centres not stated),–,"inconclusive: 112 µM [inhibitor, single point]"
